Reference: patent US8580579B2, “Hydrophilic and lipophilic rhodamines for labelling and imaging” (Max-Planck-Gesellschaft zur Foerderung der Wissenschaften …, priority 2009, dated 2013)
For part of these data: For at least one compound, name, drawing or mass did not settle the structure. Some entries share one result that the patent states for a list of compounds.

Key:
[1] = cited from earlier work
[2] = Chemical and storage stability of dyes and reactive derivatives; assay type: physicochemical; details: stored at −20° C. under argon, 2 months; increased from 3-5%
Text: Usually, amino- or thiol reactive derivatives of the fluorescent dyes are used for labelling of proteins. For conjugation with amines, the free carboxy group needs to be activated by the formation of N-hydroxy(sulfo)succinimidyl esters, phenyl esters with electron-acceptor groups in the benzene ring or similar compounds with good leaving groups. […] Ester 8 partly decomposed in the course of chromatographic isolation using silica gel. Therefore, the reaction mixture containing the active ester 8 was used for labelling the lipids in their non-polar domain and other coupling procedures. […] They were isolated by reversed-phase HPLC using the gradient elution with aqueous acetonitrile with 0.1% (v/v) of TFA, lyophilized and stored at −20° C. under argon. Under these conditions, the content of the corresponding acids 6/6D in the very light dark blue voluminous solids increased from 3-5% up to 7-10% in 2 months. The higher stability of the NHS esters 9 and 10 may be explained by the absence of any nucleophilic counter ion. The maleimide derivative 11 has been prepared straight from compounds 9 and 10 by combining them in DMF with Et3N as base. It was also isolated by HPLC.

SMILES	polarity [1]	content of the corresponding acids 6/6D in the solid NHS ester after storage [2]
CC[N+]1=c2cc3c(cc2C(C)CC1(C)C)=C(c1ccccc1C(=O)N(C)CCCC(=O)O)c1cc2c4c(c1C3(C)C)CCCN4CCC2.[O-][Cl+3]([O-])([O-])[O-] (mixture of isomers) [Atto 647N]	(non-polar)^2	–
O=C(O)CCCCCNC(=O)COc1ccc(/C=C/C2=[N+]3C(=Cc4ccc(-c5cccs5)n4[B-]3(F)F)C=C2)cc1 [BODIPY ® 630/650]	(non-polar)	–
CN(CCC(=O)ON1C(=O)CCC1=O)C(=O)c1c(F)c(F)c(F)c(F)c1C1=c2cc3c4c(c2Oc2c1cc1c5c2CCCN5C(C)(C)C=C1CS(=O)(=O)O)CCC[N+]=4C(C)(C)C=C3CS(=O)(=O)[O-] [Compound 9]	–	7-10%
